Data as given in PubChem BioAssay AID1259425 (University of Nebraska Medical Center, 2018).
In all, the deposit lists about 14,000 reagents; this is an unselected part. The numbers tell different reagents against one gene apart. Further read-outs or replicates are left out here. Reagent sequences are not shown. Not stated in the record: the time to read-out.

Screen: 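Seek colon cancer weak points whose silencing resembles KSR1 loss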 (primary screen)
Cells: HCT116 human colon cancer cells
Reagents: siRNA pool against human genes, 50 nM siRNA
Read-out: 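mRNA of six signature genes measured together by branched-DNA assay after 50 nM siRNA pool, blank removed, divided by geometric mean of two housekeeping genes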
Direction: BNIP3L mRNA: higher = more BNIP3L transcript after knockdown; NDRG1 mRNA: higher = more NDRG1 transcript after knockdown

gene symbol | pool no. | BNIP3L mRNA, set 1 | NDRG1 mRNA, set 1
TLX1 (T cell leukemia homeobox 1) | 1 | 0.13 | 0.0946
STOM (stomatin) | 1 | 0.173 | 0.178
FCRL5 (Fc receptor like 5) | 1 | 0.0973 | 0.0692
INPP5D (inositol polyphosphate-5-phosphatase D) | 1 | 0.197 | 0.325
RNF114 (ring finger protein 114) | 1 | 0.0656 | 0.158
IFIT1 (interferon induced protein with tetratricopeptide repeats 1) | 1 | 0.142 | 0.246
CAND1 (cullin associated and neddylation dissociated 1) | 1 | 0.0828 | 0.166
ADGRE3 (adhesion G protein-coupled receptor E3) | 1 | 0.173 | 0.176
ID4 (inhibitor of DNA binding 4) | 1 | 0.0616 | 0.078
NAA25 (N-alpha-acetyltransferase 25, NatB auxiliary subunit) | 1 | 0.166 | 0.466
HOXB8 (homeobox B8) | 1 | 0.218 | 0.272
TMEM59L (transmembrane protein 59 like) | 1 | 0.14 | 0.398
RAMP1 (receptor activity modifying protein 1) | 1 | 0.0963 | 0.342
PDZRN4 (PDZ domain containing ring finger 4) | 1 | 0.103 | 0.17
ACADSB (acyl-CoA dehydrogenase short/branched chain) | 1 | 0.0757 | 0.0899
CLDN6 (claudin 6) | 1 | 0.151 | 0.235
RIPOR1 (RHO family interacting cell polarization regulator 1) | 1 | 0.0704 | 0.506
BEX2 (brain expressed X-linked 2) | 1 | 0.35 | 0.173
HOXD10 (homeobox D10) | 1 | 0.128 | 0.209
PTPN21 (protein tyrosine phosphatase non-receptor type 21) | 1 | 0.0494 | 0.2
LARGE1 (LARGE xylosyl- and glucuronyltransferase 1) | 1 | 0.0942 | 0.18
OR51E2 (olfactory receptor family 51 subfamily E member 2) | 1 | 0.129 | 0.0704

Next part; the last 6 above are carried over.
gene symbol | pool no. | BNIP3L mRNA, set 1 | NDRG1 mRNA, set 1
RIPOR1 (RHO family interacting cell polarization regulator 1) | 1 | 0.0704 | 0.506
BEX2 (brain expressed X-linked 2) | 1 | 0.35 | 0.173
HOXD10 (homeobox D10) | 1 | 0.128 | 0.209
PTPN21 (protein tyrosine phosphatase non-receptor type 21) | 1 | 0.0494 | 0.2
LARGE1 (LARGE xylosyl- and glucuronyltransferase 1) | 1 | 0.0942 | 0.18
OR51E2 (olfactory receptor family 51 subfamily E member 2) | 1 | 0.129 | 0.0704
TMEM126A (transmembrane protein 126A) | 1 | 0.173 | 0.153
PRR5L (proline rich 5 like) | 1 | 0.174 | 0.221
RPS6KB2 (ribosomal protein S6 kinase B2) | 1 | 0.088 | 0.132
RPS6KB2 | 2 | 0.062 | 0.227
DNAJA2 (DnaJ heat shock protein family (Hsp40) member A2) | 1 | 0.0712 | 0.111
CNBP (CCHC-type zinc finger nucleic acid binding protein) | 1 | 0.103 | 0.124
MRAS (muscle RAS oncogene homolog) | 1 | 0.0945 | 0.182
HACD1 (3-hydroxyacyl-CoA dehydratase 1) | 1 | 0.0715 | 0.1
C19orf12 (chromosome 19 open reading frame 12) | 1 | 0.207 | 0.594
PLEKHS1 (pleckstrin homology domain containing S1) | 1 | 0.088 | 0.558
PRDM2 (PR/SET domain 2) | 1 | 0.0755 | 0.0918
BSG (basigin (Ok blood group)) | 1 | 0.0923 | 0.195
PSENEN (presenilin enhancer, gamma-secretase subunit) | 1 | 0.159 | 0.0754
OSMR (oncostatin M receptor) | 1 | 0.0758 | 0.144
IMPDH1 (inosine monophosphate dehydrogenase 1) | 1 | 0.0872 | 0.133
VWA7 (von Willebrand factor A domain containing 7) | 1 | 0.253 | 0.138
LINS1 (lines homolog 1) | 1 | 0.115 | 0.193
RRAGA (Ras related GTP binding A) | 1 | 0.124 | 0.468
FBXL7 (F-box and leucine rich repeat protein 7) | 1 | 0.0629 | 0.199
DOP1A (DOP1 leucine zipper like protein A) | 1 | 0.131 | 0.428
STEEP1 (STING1 ER exit protein 1) | 1 | 0.0852 | 0.0678
SDHAF2 (succinate dehydrogenase complex assembly factor 2) | 1 | 0.0556 | 0.303
GDAP1L1 | 1 | 0.128 | 0.576
PLRG1 (pleiotropic regulator 1) | 1 | 0.0628 | 0.215
CHST7 (carbohydrate sulfotransferase 7) | 1 | 0.223 | 0.358
PIAS4 (protein inhibitor of activated STAT 4) | 1 | 0.0331 | 0.0858
CCDC88C (coiled-coil and HOOK domain protein 88C) | 1 | 0.112 | 0.162
ACADM (acyl-CoA dehydrogenase medium chain) | 1 | 0.176 | 0.128
